Measurements reported in US20140161741A1, “PERFUME SYSTEMS” (The Procter & Gamble Company, priority 2012, published 2014).

Assay: Odor character of Table 1 PRMs
Details: neat PRM; last column of Table 1, which has no head

Structure (SMILES) | odor character (descriptor)
CC1C[C@]2(C)CC[C@@]1(C)OC2(C)C (stereo partly drawn) [PRM 9, (R,S)-1,3,3,4,6-pentamethyl-2-oxa-bicyclo[2.2.2]octane] | woody, camphoraceous
CCCCC1OC2(C)CCC1(CC)CC2C [PRM 2, (R,S)-3-butyl-4-ethyl-1,6-dime-thyl-2-oxabicyclo[2.2.2]octane] | floral
CCC12CC[C@@](C)(O[C@H]1C)C(C)C2 (stereo partly drawn) [PRM 4, (R,S)-4-ethyl-1,3,6-trimethyl-2-oxa-bicyclo[2.2.2]octane] | woody, eucalyptus, amber
CCCC12CCC(C)(OC1C)C(C)C2 (stereo not shown) [PRM 11, 1,3,6-trimethyl-4-propyl-2-oxabicyclo[2.2.2]octane] | Fresh, fruity (apple, pear), herbal, floral (rose)
CCCC12CCC(C)(OC1)C(C)C2 (racemic) [PRM 6, 1,6-dimethyl-4-(R,S)-propyl-2-oxa-bicyclo[2.2.2]octane] | fruity, green, fresh
CC1C[C@]2(C)CC[C@@]1(C)OC2 (stereo partly drawn) [PRM 8, (R,S)-1,4,6-trimethyl-2-oxa-bicyclo[2.2.2]octane] | camphor, eucalyptol
CC1CC2(C)CC[C@@]1(C)O[C@H]2C (stereo partly drawn) [PRM 3, (R,S)-1,3,4,6-tetramethyl-2-oxabicyclo[2.2.2]octane] | menthol
C=CCC12CCC(C)(OC1)C(C)C2 (racemic) [PRM 7, 4-(R,S)-allyl-1,6-dimethyl-2-oxa-bicyclo[2.2.2]octane] | green (cactus flowers)
CCCCC1OC2(C)CCC1(C)CC2C (stereo not shown) [PRM 13, 3-butyl-1,4,6-trimethyl-2-oxabicyclo[2.2.2]octane] | solventy
CC(C)[C@@]12CC[C@@](C)(OC1)C(C)C2 (stereo partly drawn) [PRM 5, (R,S)-4-isopropyl-1,6-dimethyl-2-oxa-bicyclo[2.2.2]octane] | herbal, aromatic, chamomile, violet
CC[C@@]12CC[C@@](C)(OC1)C(C)C2 (stereo partly drawn) [PRM 10, (R,S)-4-ethyl-1,6-dimethyl-2-oxa-bicyclo[2.2.2]octane] | Herbal, aromatic, earthy
CCCCC12CCC(C)(OC1C)C(C)C2 (stereo not shown) [PRM 12, 4-butyl-1,3,6-trimethyl-2-oxabicyclo[2.2.2]octane] | Floral, fruity, butyric
CC(C)C[C@@H]1O[C@]2(C)CCC1(C)CC2C (stereo partly drawn) [PRM 1, (R,S)-3-isobutyl-1,4,6-trimethyl-2-oxabicyclo[2.2.2]octane] | petrol, styrene
